# The list is a part of this screen's results and no random one: it is rich in T/C values a quarter to a half above the control, in often repeated tests (any T/C) and in doses without a T/C. Other doses and runs of a compound stand elsewhere. T/C is the treated group as % of the vehicle group. Some doses have a count of surviving animals in place of a T/C: the source holds a T/C of zero for them, seemingly a mark for toxic or unscored doses. Some survivor counts are full or nearly so, which does not show that the dose was tolerated: survival well below the control is almost never listed, so the zero probably covers shortened survival too. Survivors were counted at the toxicity check, usually on the fifth day, unless a day is given; later deaths do not show. Schedule codes are those of the source, taken here to give the interval after Q, in days (D) or hours (H), and the number of doses after X. Where survival is the endpoint, this PubChem deposit counts one and a half times the control or more as active, and values a quarter to a half above the control carry no call in these data; other NCI protocols may use other cut-offs. Some entries were tested several times; the results are listed from low to high. Some T/C values are followed by the survivors on the day toxicity was checked, most often the fifth; without a count, all were alive then.
# Test system: CD2F1 mice, L1210 leukemia ip, survival T/C
# Test: NCI In Vivo Anticancer Drug Screen. Data for tumor model L1210 Leukemia (intraperitoneal) in CD2F1 (CDF1) mice
# Details: higher T/C = longer survival
# Summary of the method: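 Read-out first: treated-group measurement over vehicle-control measurement, expressed as a ratio. Animals bore a transplanted tumor line and were dosed with compound or vehicle.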
# [1] = T/C endpoint: mean survival time, dose: 100.0 mg/kg/injection, schedule: Q04DX003 (ip), vehicle: saline with Tween-80
# [2] = T/C endpoint: mean survival time, dose: 200.0 mg/kg/injection, schedule: Q01DX009 (ip), vehicle: saline with Tween-80
# [3] = T/C endpoint: mean survival time, dose: 200.0 mg/kg/injection, schedule: Q04DX003 (ip), vehicle: saline with Tween-80
# [4] = T/C endpoint: mean survival time, dose: 400.0 mg/kg/injection, schedule: Q04DX003 (ip), vehicle: saline with Tween-80
# [5] = T/C endpoint: mean survival time, dose: 300.0 mg/kg/injection, schedule: Q01DX001 (ip), vehicle: saline
# [6] = T/C endpoint: mean survival time, dose: 150.0 mg/kg/injection, schedule: Q01DX009 (ip), vehicle: saline
# [7] = T/C endpoint: mean survival time, dose: 300.0 mg/kg/injection, schedule: Q01DX009 (ip), vehicle: saline
# [8] = T/C endpoint: mean survival time, dose: 100.0 mg/kg/injection, schedule: Q01DX009 (ip), vehicle: Klucel (hydroxypropylcellulose) (HPC)
# [9] = T/C endpoint: mean survival time, dose: 400.0 mg/kg/injection, schedule: Q01DX001 (ip), vehicle: saline
# [10] = T/C endpoint: mean survival time, dose: 50.0 mg/kg/injection, schedule: Q04DX002 (ip), vehicle: saline with Tween-80
# [11] = T/C endpoint: mean survival time, dose: 100.0 mg/kg/injection, schedule: Q04DX002 (ip), vehicle: saline with Tween-80
# [12] = T/C endpoint: mean survival time, dose: 400.0 mg/kg/injection, schedule: Q04DX002 (ip), vehicle: saline with Tween-80
structure (smiles),measurement,setting,value
CCCCCCCCC(=O)N1CCOCC1,survivor count,[1],3 of 6
same,survivor count,[2],0 of 6
same,survivor count,[3],0 of 6
same,survivor count,"T/C endpoint: mean survival time, dose: 225.0 mg/kg/injection, schedule: Q04DX003 (ip), vehicle: saline",6 of 6
same,survivor count,"T/C endpoint: mean survival time, dose: 335.0 mg/kg/injection, schedule: Q04DX003 (ip), vehicle: saline",1 of 6
same,survivor count,"T/C endpoint: mean survival time, dose: 400.0 mg/kg/injection, schedule: Q01DX009 (ip), vehicle: saline with Tween-80",0 of 6
same,survivor count,[4],0 of 6
C[n+]1ccc(/C(=N\O)c2ccccc2)cc1,survivor count,[5],0 of 6
CC(=O)OC1COC(n2nnc(C#N)c2C#N)C(OC(C)=O)C1OC(C)=O (centres undefined),survivor count,"T/C endpoint: mean survival time, dose: 200.0 mg/kg/injection, schedule: Q01DX005 (ip), vehicle: distilled water + Tween-80",3 of 6
[Cl][Pt+2][Cl].[NH-]c1cc(F)ccc1F.[NH-]c1cc(F)ccc1F,survivor count,"T/C endpoint: mean survival time, dose: 100.0 mg/kg/injection, schedule: Q04DX003 (ip), vehicle: distilled water + Tween-80",0 of 6
same,survivor count,"T/C endpoint: mean survival time, dose: 200.0 mg/kg/injection, schedule: Q04DX003 (ip), vehicle: distilled water + Tween-80",0 of 6
O=C(C1CO1)C(Cl)(Cl)Cl (centres undefined),survivor count,"T/C endpoint: median survival time, dose: 100.0 mg/kg/injection, schedule: Q01DX009 (ip), vehicle: saline",0 of 6
same,survivor count,"T/C endpoint: median survival time, dose: 200.0 mg/kg/injection, schedule: Q01DX009 (ip), vehicle: saline",0 of 6
CNC(=O)OC(C)CC(O)(C(F)(F)F)C(F)(F)F (centres undefined),survivor count,"T/C endpoint: mean survival time, dose: 200.0 mg/kg/injection, schedule: Q04DX003 (ip), vehicle: Klucel (hydroxypropylcellulose) (HPC)",6 of 6
same,survivor count,"T/C endpoint: mean survival time, dose: 400.0 mg/kg/injection, schedule: Q04DX003 (ip), vehicle: Klucel (hydroxypropylcellulose) (HPC)",0 of 6
C#CC(=O)c1ccccc1,survivor count,"T/C endpoint: mean survival time, dose: 18.8 mg/kg/injection, schedule: Q04DX003 (ip), vehicle: saline",6 of 6
same,survivor count,"T/C endpoint: mean survival time, dose: 37.5 mg/kg/injection, schedule: Q04DX003 (ip), vehicle: saline",0 of 6
O=C(CCl)N1c2ccccc2Sc2ccccc21,survivor count,"T/C endpoint: mean survival time, dose: 400.0 mg/kg/injection, schedule: Q01DX009 (ip), vehicle: water",5 of 6
CC1(C)N=C(N)N=C(N)N1c1ccc(OCCCNC(=O)Nc2cccc(S(=O)(=O)F)c2)c(Cl)c1,T/C,[6],138 % of control [5 of 6 alive]
same,survivor count,[7],3 of 6
O=C1Cc2cc3c(cc2C=C2CCCN12)OCO3,survivor count,"T/C endpoint: mean survival time, dose: 200.0 mg/kg/injection, schedule: Q01DX009 (ip), vehicle: water",3 of 6
CN(C(=O)N(CCCl)N=O)C1CCCCC1,T/C,"T/C endpoint: mean survival time, dose: 120.0 mg/kg/injection, schedule: Q01DX001 (ip), vehicle: saline with Tween-80",135 % of control
CCCCc1ccc(C(=O)O)nc1.[Cu+2],survivor count,"T/C endpoint: mean survival time, dose: 75.0 mg/kg/injection, schedule: Q01DX001 (ip), vehicle: saline",0 of 6
same,survivor count,"T/C endpoint: mean survival time, dose: 150.0 mg/kg/injection, schedule: Q01DX001 (ip), vehicle: saline",0 of 6
same,survivor count,[5],0 of 6
CC(=O)/C(=N/O)c1ccccc1,survivor count,"T/C endpoint: mean survival time, dose: 300.0 mg/kg/injection, schedule: Q01DX009 (ip), vehicle: saline with Tween-80",0 of 6
COC1C(CO)OC(n2cnc3c(=S)nc(N)[nH]c32)C1O (centres undefined),T/C,[8],149 % of control
same,T/C,"T/C endpoint: mean survival time, dose: 200.0 mg/kg/injection, schedule: Q01DX009 (ip), vehicle: Klucel (hydroxypropylcellulose) (HPC)",131 and 137 % of control
same,T/C,"T/C endpoint: mean survival time, dose: 400.0 mg/kg/injection, schedule: Q01DX009 (ip), vehicle: Klucel (hydroxypropylcellulose) (HPC)",131 % of control
O=C(NCCN1CC1)c1ccccc1C(=O)NCCN1CC1,T/C,[3],129 % of control [5 of 6 alive]
same,T/C,[9],138 % of control [5 of 6 alive]
COc1cc(C(CC(C)=O)c2cc3c(cc2OC(C)=O)OCO3)cc(OC)c1OC (centres undefined) (tested in a mixture with another compound),T/C,"T/C endpoint: median survival time, dose: 120.0 mg/kg/injection, schedule: Q01DX005 (ip), vehicle: saline with Tween-80","132, 138, 142 % of control"
same,survivor count,"T/C endpoint: median survival time, dose: 333.0 mg/kg/injection, schedule: Q01DX005 (ip), vehicle: saline with Tween-80",2 of 6
same,survivor count,"T/C endpoint: median survival time, dose: 333.33 mg/kg/injection, schedule: Q01DX005 (ip), vehicle: saline with Tween-80",6 of 6
same,survivor count,"T/C endpoint: median survival time, dose: 555.56 mg/kg/injection, schedule: Q01DX005 (ip), vehicle: saline with Tween-80",1 of 6
CCCCCCCCCCCCCCCC(=O)N(C(C)CCCN(CC)CC)C(C)CCCN(CC)CC (centres undefined),survivor count,"T/C endpoint: mean survival time, dose: 50.0 mg/kg/injection, schedule: Q01DX009 (ip), vehicle: Klucel (hydroxypropylcellulose) (HPC)",5 of 6
same,survivor count,[8],0 of 6
CCOC(=O)c1cc(C=O)nc2c(Cl)cc(Cl)cc12,survivor count,[3],6 of 6
CN(C)CC1CC2(CC(CN(C)C)C1=O)OCCO2 (centres undefined),survivor count,"T/C endpoint: mean survival time, dose: 75.0 mg/kg/injection, schedule: Q01DX001 (ip), vehicle: other",0 of 6
same,survivor count,"T/C endpoint: mean survival time, dose: 150.0 mg/kg/injection, schedule: Q01DX001 (ip), vehicle: other",0 of 6
same,survivor count,"T/C endpoint: mean survival time, dose: 300.0 mg/kg/injection, schedule: Q01DX001 (ip), vehicle: other",0 of 6
CC(C)CN1CCCC(=O)C(O)CCC1 (centres undefined),survivor count,"T/C endpoint: mean survival time, dose: 100.0 mg/kg/injection, schedule: Q01DX009 (ip), vehicle: acetone",0 of 6
CC12C3C4C5C3C1(C)C(C42)C51OCCO1 (centres undefined),survivor count,[10],1 of 3
same,survivor count,[11],0 of 3
same,survivor count,"T/C endpoint: mean survival time, dose: 200.0 mg/kg/injection, schedule: Q04DX002 (ip), vehicle: saline with Tween-80",0 of 3
same,survivor count,[12],0 of 3
CCN(CC)CCOC(=O)C(c1ccccc1)C(C)(O)CC (centres undefined),survivor count,"T/C endpoint: mean survival time, dose: 200.0 mg/kg/injection, schedule: Q04DX003 (ip), vehicle: saline",2 of 6
same,survivor count,"T/C endpoint: mean survival time, dose: 400.0 mg/kg/injection, schedule: Q04DX003 (ip), vehicle: saline",0 of 6
Cc1ccc(N=C(C(=Nc2ccc(C)cc2)c2ccccc2)c2ccccc2)cc1,survivor count,"T/C endpoint: mean survival time, dose: 100.0 mg/kg/injection, schedule: Q01DX009 (ip), vehicle: saline with Tween-80",6 of 6
Nc1nc(SSc2nc(N)nc3c2ncn3C2CC(O)C(CO)O2)c2ncn(C3CC(O)C(CO)O3)c2n1 (centres undefined),T/C,"T/C endpoint: mean survival time, dose: 9.4 mg/kg/injection, schedule: Q01DX009 (ip), vehicle: saline",142 % of control
same,survivor count,"T/C endpoint: mean survival time, dose: 75.0 mg/kg/injection, schedule: Q01DX009 (ip), vehicle: saline",4 of 6
same,survivor count,[6],2 of 6
same,survivor count,[7],0 of 6
CCCCCCCCCCCCNC1=CC(=O)c2nccnc2C1=O,survivor count,[2],1 of 3
O=C(/C(=N\O)c1ccc(Cl)cc1)c1ccc(Cl)cc1,survivor count,[4],0 of 6
NC(CCNCCc1ccccc1)CNCCc1ccccc1 (centres undefined),survivor count,[5],0 of 6
CCCCCCCCCCCCCCOc1ccc(Cl)cc1,survivor count,[12],3 of 3
O/N=C/c1ccc(O)cc1O,survivor count,[9],0 of 6
COc1cccc2c1C(=O)c1c(O)c3c(c(O)c1C2=O)C[C@@](O)(/C(CO)=N/NC(=O)c1ccc(Cl)c(Cl)c1)C[C@@H]3OC1CC(N)C(O)C(C)O1 (some centres undefined),T/C,"T/C endpoint: mean survival time, dose: 4.0 mg/kg/injection, schedule: Q01DX009 (ip), vehicle: water",132 % of control
same,T/C,"T/C endpoint: mean survival time, dose: 8.0 mg/kg/injection, schedule: Q01DX009 (ip), vehicle: water",138 % of control
same,survivor count,"T/C endpoint: mean survival time, dose: 64.0 mg/kg/injection, schedule: Q01DX009 (ip), vehicle: water",2 of 6
CN(C)Cc1cc(C(C)(C)C)cc(CN(C)C)c1O,survivor count,"T/C endpoint: mean survival time, dose: 20.0 mg/kg/injection, schedule: Q01DX009 (ip), vehicle: saline with Tween-80",2 of 6
same,survivor count,"T/C endpoint: mean survival time, dose: 40.0 mg/kg/injection, schedule: Q01DX009 (ip), vehicle: saline with Tween-80",0 of 6
O/N=C/c1cc[n+](CCC[n+]2ccc(/C=N/O)cc2)cc1,survivor count,[1],0 of 6
same,survivor count,[3],0 of 6
same,survivor count,[4],0 of 6
CC1(OO)OOC(=O)C1(C)C (centres undefined),survivor count,"T/C endpoint: mean survival time, dose: 25.0 mg/kg/injection, schedule: Q04DX002 (ip), vehicle: saline with Tween-80",2 of 3
same,survivor count,[10],0 of 3
same,survivor count,[11],0 of 3
